Data as given in PubChem BioAssay AID1671190 (National Center for Advancing Translational Sciences (NCATS), 2021).
The campaign covered roughly 580,000 compounds. About 6,100 (1.1%) were called active. This list was built around the results that the source calls inconclusive (neither active nor inactive); the mix of calls is not that of the screen. Calls follow the shape of the dose curve; as a rule, active = well fitted inhibition curve with a large enough effect; inconclusive = small, poorly fitted or top-dose-only effect, or another doubt; inactive = no such curve, though single readings can be large or run the other way. Potencies of inconclusive entries are doubtful fits and often do not repeat.

Chains of the proteins cited; added tags and fusions are not shown. Lines headed by an entry give the natural chain unless they say otherwise; changes in a name come on top.
UniProt P18054: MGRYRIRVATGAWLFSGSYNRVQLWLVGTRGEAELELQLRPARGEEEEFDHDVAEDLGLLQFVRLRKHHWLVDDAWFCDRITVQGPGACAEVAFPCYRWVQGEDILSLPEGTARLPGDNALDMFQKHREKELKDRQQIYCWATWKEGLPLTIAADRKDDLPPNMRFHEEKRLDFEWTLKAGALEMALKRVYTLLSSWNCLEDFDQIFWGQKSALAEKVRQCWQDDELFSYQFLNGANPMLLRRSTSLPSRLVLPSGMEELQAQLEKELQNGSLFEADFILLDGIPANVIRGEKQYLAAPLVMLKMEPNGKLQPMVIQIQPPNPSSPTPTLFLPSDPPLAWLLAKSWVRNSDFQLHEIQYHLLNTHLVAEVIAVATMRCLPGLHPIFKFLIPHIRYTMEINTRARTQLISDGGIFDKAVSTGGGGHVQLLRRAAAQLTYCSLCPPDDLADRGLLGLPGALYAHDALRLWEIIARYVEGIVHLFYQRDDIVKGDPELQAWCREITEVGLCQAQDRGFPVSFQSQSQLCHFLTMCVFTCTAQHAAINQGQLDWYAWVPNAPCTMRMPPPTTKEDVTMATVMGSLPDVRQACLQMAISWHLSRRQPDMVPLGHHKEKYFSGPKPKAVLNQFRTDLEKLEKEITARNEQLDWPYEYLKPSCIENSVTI

target: Polyunsaturated fatty acid lipoxygenase ALOX12 (Homo sapiens) (UniProt P18054); assay: Primary qHTS assay for inhibitors of human arachidonate 12S-lipoxygenase (ALOX12): Round 2; settings: purified 12hLO, xylenol orange hydroperoxide absorbance; activity change, negative = inhibition: at 108 µM (top of the series) unless noted
In short: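 Hydroperoxide product was detected by ferrous iron/xylenol orange as the 573 to 405 nm absorbance ratio. Arachidonic acid at 40 uM (final) was turned over for 30 min at room temperature by 150 nM human 12hLO, pH 7.0 Hepes buffer, after 15 min compound preincubation.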
% is scaled to controls: 0 for no effect and ±100 for the full control effect; potency is read from the fitted curve at half-maximal effect.

| Compound | activity change, negative = inhibition | Potency |
| --- | --- | --- |
| CC(C)CC(=O)NC(NC(=S)Nc1cccc2cccnc12)C(Cl)(Cl)Cl (stereo not drawn) | inactive: 398% | – |
| CCNC(=O)[C@@H]1CCCN1[C@@H](C(=O)NC)c1ccccc1 | – | inconclusive: 35.5 µM [inhibitor, single point] |
| O=C(O)Cn1nc(-c2ccncc2)nc1C1CCOC1 (stereo not drawn) | – | inconclusive: 3.55 µM [inhibitor, full curve] |
| COC(=O)C1=C(CCc2ccccc2)NC(=O)NC1c1ccc(Cl)cc1 (stereo not drawn) | – | active: 35.5 µM |
| O=C(C[C@@H]1C[C@H]2O[C@H](CNC3CCNCC3)[C@@H](O)[C@H]2O1)N1CCOCC1 | – | inconclusive: 10 µM [inhibitor, full curve] |
| CC(C)c1ccc(NC(=S)NNc2ccc(Cl)c(C(=O)O)c2)cc1 | – | inconclusive: 39.8 µM [inhibitor, partial curve, poor fit] |
| Cc1ccc(Nc2nc(N3CCOCC3)nc(N3CCOCC3)n2)cc1 | inactive: 4.12% | – |
| CCc1ccc(CN2CCC(n3nccc3NC(=O)c3ccccc3Cl)CC2)cc1 | inactive: -14.6% | – |
| C=CCNC(=O)N1CCOC(CN(CC(C)C)C(=O)c2ccccc2)C1 (stereo not drawn) | inactive: 43.9% | – |
| O=C([C@@H]1C[C@H](c2ccc(F)cc2)N(Cc2ccccc2Cl)C1)N1CCN(CCO)CC1 | – | inconclusive: 20 µM [inhibitor, full curve, poor fit] |
| CN1CCc2c([nH]c3ccccc23)C12CCN(C(=O)c1ccncc1)CC2 | inactive: 44.2% | – |
| Cc1ccccc1CN1CCN(C(=O)c2cccc(F)c2)CC1 | – | inconclusive: 1.12 µM [inhibitor, full curve, poor fit] |
| Cn1c(=O)c2c(ncn2CC(=O)NCC(C)(c2ccccc2)c2ccccc2)n(C)c1=O | inactive: -33% | – |
| COCCN1C(=O)[C@@H]2C[C@@H](CN2C(=O)C2CCOCC2)Oc2ccccc21 | inactive: 33.8% [at 176 µM] | – |
| Oc1ccc(-c2c(C3=CCCCC3)sc3ccccc23)cc1 | – | inconclusive: 50.1 µM [inhibitor, partial curve, poor fit] |
| COCc1cc(N2CCN(C(=O)OC(C)(C)C)C[C@@H]2C)ccc1N1CC[C@@H](O)C1 | – | inconclusive: 44.7 µM [inhibitor, partial curve, poor fit] |
| CN1OC[C@@H]2CN(Cc3ccc(Cl)cc3)[C@H](c3ccc(N4CCCCC4)cc3)C[C@@H]21 | – | inconclusive: 89.1 µM [inhibitor, single point] |
| Cc1ccc2c(Cl)cc(Cl)c(OCC(=O)NC(=O)NCc3ccco3)c2n1 | inactive: 0% | – |
| FC(F)(F)c1cc(-c2ccc(Cl)cc2)nc(NCc2cccnc2)n1 | inactive: 12.4% | – |
| CC(C=CC1=C(C)CCCC1(C)C)=CC=CC(C)=CC(=O)Nc1ccc(O)cc1 | – | inconclusive: 3.52 µM [inhibitor, full curve] |
| O=C(Cn1c(O)c(N=NC(=O)c2ccncc2)c2ccccc21)Nc1ccccc1 | inactive: 0% | – |
| COc1ccc(N2CCN(CCCNC(=O)c3cc(Nc4ccccc4OC)nc4ccccc34)CC2)cc1 | – | inconclusive: 56.2 µM [inhibitor, partial curve, poor fit] |
| CC(=O)Oc1cc2c(c(C)c1OC(C)=O)CC=C1[C@@]2(C)CC[C@@]2(C)[C@H]3C[C@](C)(C(=O)O)CC[C@]3(C)CC[C@]12C | inactive: -25% | – |

Exported in CSV form: three of the compounds above
Compound,"activity change, negative = inhibition",Potency
CCNC(=O)[C@@H]1CCCN1[C@@H](C(=O)NC)c1ccccc1,–,"inconclusive: 35.5 µM [inhibitor, single point]"
Cn1c(=O)c2c(ncn2CC(=O)NCC(C)(c2ccccc2)c2ccccc2)n(C)c1=O,inactive: -33%,–
CC(C=CC1=C(C)CCCC1(C)C)=CC=CC(C)=CC(=O)Nc1ccc(O)cc1,–,"inconclusive: 3.52 µM [inhibitor, full curve]"

Continued.

| Compound | activity change, negative = inhibition | Potency |
| --- | --- | --- |
| COc1cc2ccccc2cc1C(=O)O | inactive: -3.59% | – |
| CCN(Cc1nc2cc(Cl)ccc2c(=O)[nH]1)C(=O)c1cccc(NC(=O)c2cccs2)c1 | – | inconclusive: 89.1 µM [inhibitor, single point] |
| COCCCN1C(=O)C(CC(=O)NC2CCCCC2)CC(C(=O)N2CCCCCC2)=C1C (stereo not drawn) | inactive: 6.75% | – |
| CCCC(=O)Nc1ccc2c(c1)nc(CN1CCN(C(C)=O)CC1)n2C | inactive: 0% | – |
| Cc1cccc(NC(=O)CC2CC3CCC2C3)c1 (stereo not drawn) | inactive: 1.83% | – |
| COCCn1nnnc1C(c1cccs1)N1CCN(c2cc(C)ccc2C)CC1 (stereo not drawn) | – | inconclusive: 6.31 µM [inhibitor, full curve, poor fit] |
| COc1cccc2c1C(=O)O/C2=C/c1ccc2c(c1)OCO2 | – | inconclusive: 1 µM [inhibitor, partial curve, poor fit] |
| Cc1ccc(NC(=S)N/N=C/c2ccc([N+](=O)[O-])s2)cc1 | – | inconclusive: 44.7 µM [inhibitor, partial curve, poor fit] |
| Cl/C(=N\Nc1c(Cl)cc(Cl)cc1Cl)c1ccccc1 | – | inconclusive: 35.5 µM [inhibitor, partial curve, poor fit] |
| O=C1N[C@H]2CC=C[C@H]2Nc2ccccc21 | – | inconclusive: 15.8 µM [inhibitor, partial curve, poor fit] |
| C=CC[C@H](CC(=O)N(CCO)Cc1ccccc1)C(=O)NC[C@H](OC(=O)[C@@H](CC=C)CC(=O)OC(C)(C)C)c1ccccc1 | inactive: -24.5% | – |
| Cc1ccc(OCC(=O)Nc2ccc(S(=O)(=O)N(C)C3CCN(C)CC3)cc2)c(C)c1 | – | active: 35.5 µM |
| CN(C)CCNC(C(=O)O)c1c[nH]c2cc(F)ccc12 (stereo not drawn) | – | inconclusive: 39.8 µM [inhibitor, single point] |
| COc1ccc(S(=O)(=O)N2CCCC(C(=O)Nc3cccnc3)C2)cc1Cl (stereo not drawn) | – | inconclusive: 12.6 µM [inhibitor, partial curve, poor fit] |
| COCCn1c(Cc2c(Cl)cccc2Cl)n[nH]c1=S | – | inconclusive: 44.7 µM [inhibitor, partial curve, poor fit] |
| CCCCC(CC)CNC(=O)CCC(=O)NCC(CC)CCCC (stereo not drawn) | – | inconclusive: 112 µM [inhibitor, single point] |
| Cc1onc(-c2c(Cl)cccc2Cl)c1-c1nc2cc(Cl)ccc2c(=O)o1 | – | inconclusive: 89.1 µM [inhibitor, single point] |
| CC(C)NCC(=O)Nc1c2c(nc3ccccc13)CCC2 | – | inconclusive: 0.199 µM [inhibitor, full curve, poor fit] |
| O=C(O)c1cnc(NCc2ccncc2)nc1-c1ccccc1 | – | inconclusive: 14.1 µM [inhibitor, full curve, poor fit] |
| c1cc2c(cc1C1CCCCC1)c1c3n2CCN=C3CCC1 | – | inconclusive: 12.6 µM [inhibitor, single point] |
| O=C1c2cc(N3CCOCC3)nc(-c3cnc4[nH]ccc4c3)c2CN1CC1CC1 | inactive: 6.39% [at 176 µM] | – |
| COc1cc(NC(=O)Nc2cccc(C(C)=O)c2)cc(OC)c1OC | inactive: -4.76% | – |
| NC(=O)c1c(NC(=O)c2ccccc2)sc2c1CCCC2 | – | inconclusive: 89.1 µM [inhibitor, single point] |

| Compound | activity change, negative = inhibition | Potency |
| --- | --- | --- |
| COc1ccc(C2CC(=O)C3=C(C2)OC(N)=C(C#N)C3c2ccc(C)cc2)cc1 (stereo not drawn) | inactive: -72.1% | – |
| CCCCOc1ccc(NC(=O)Cc2ccccc2)c2cccnc12 | inactive: 16.4% | – |
| C#CCN1C(=O)C2(OCCO2)c2ccccc21 | inconclusive: -39.6% [inhibitor] | – |
| Cc1c(C(=O)N(Cc2ccc(Cl)cc2)CC2CCCO2)oc2ccc(F)cc12 (stereo not drawn) | – | inconclusive: 141 µM [inhibitor, partial curve, poor fit] |
| NC(=O)C(C(=O)/C=C/c1ccc(Cl)cc1)=C1SCCS1 | inactive: -24.4% | – |
| CCOC(=O)N1CCC(N2CCCC(C(=O)c3ccccc3OC)C2)CC1 (stereo not drawn) | – | inconclusive: 89.1 µM [inhibitor, single point] |
| Cc1ccc(C)c(NC(=O)COC(=O)c2ccc3c(c2)OCCO3)c1 | inconclusive: -38.7% [inhibitor] | – |
| Cc1nc(-c2ccc(Cl)cc2)n(Cc2ccc(F)cc2)c(=O)c1CCO | – | inconclusive: 22.4 µM [inhibitor, full curve, poor fit] |
| COc1ccc(CNc2nc3nc(C)c(Cl)c(=O)n3[nH]2)cc1 | – | inconclusive: 126 µM [inhibitor, single point] |
| CCOCc1nnc(NC(=O)C2CC(=O)N(CCc3c[nH]c4ccc(C)cc34)C2)s1 (stereo not drawn) | – | inconclusive: 44.7 µM [inhibitor, partial curve, poor fit] |
| O=[N+]([O-])c1cccc(-c2nnc(-c3ccccc3)o2)c1 | inactive: 0.385% | – |
| CSc1ccc(CC2C(=O)Nc3ccccc32)cc1 (stereo not drawn) | – | inconclusive: 56.2 µM [inhibitor, partial curve, poor fit] |
| COC(=O)[C@@H]1C[C@@]2(O)[C@@H](O)[C@@H](O)[C@@H](O)C[C@H]2N1Cc1cc(OC)cc(OC)c1 | – | inconclusive: 31.6 µM [inhibitor, partial curve, poor fit] |
| CC(C)C[C@H]1CN(CCCC[C@@H]2CNC(=O)C(=O)N2Cc2ccccc2)C(=O)C(=O)N1CCC1CCCCC1 | – | inconclusive: 112 µM [inhibitor, single point] |
| CCN(C(=O)c1cc(=O)c2cc(C)ccc2o1)c1ccccc1 | – | inconclusive: 79.4 µM [inhibitor, single point] |
| O=C(NCc1cccnc1)C1Cc2c(-c3ccc(Cl)cc3)ccnc2O1 (stereo not drawn) | – | inconclusive: 0.447 µM [inhibitor, full curve, poor fit] |
| CCN(CC)c1ccc(-c2n[nH]c(=S)n2-c2ccccc2)cc1 | – | inconclusive: 11.2 µM [inhibitor, full curve, poor fit] |
| CC(C)(C)Cc1c(-c2cccc(Cl)c2)nc2ccc(Br)cn12 | – | inconclusive: 44.7 µM [inhibitor, partial curve, poor fit] |
| C=CCn1c(N)c(C(=O)OCC)sc1=S | – | inconclusive: 39.8 µM [inhibitor, partial curve, poor fit] |
| CCCCC1CCC(C(=O)NCC(c2ccco2)N2CCOCC2)CC1 (stereo not drawn) | inactive: -5.03% | – |
| CCOC(=O)C1CCN(S(=O)(=O)c2c(Cl)ccc3nonc23)CC1 | inactive: 397% | – |
| O=C(O)Cc1c[nH]c2ccccc12 | – | inconclusive: 35.5 µM [inhibitor, partial curve, poor fit] |
